# Data: the supplement of paper PMC12823440, “Inhibitors supercharge kinase turnover through native proteolytic circuits” (Nature, 2025)
# Amino acid sequences for entries named in this document (tags omitted). A change or cut given only in a name is not applied to a line headed by its entry.
# UniProt P10398: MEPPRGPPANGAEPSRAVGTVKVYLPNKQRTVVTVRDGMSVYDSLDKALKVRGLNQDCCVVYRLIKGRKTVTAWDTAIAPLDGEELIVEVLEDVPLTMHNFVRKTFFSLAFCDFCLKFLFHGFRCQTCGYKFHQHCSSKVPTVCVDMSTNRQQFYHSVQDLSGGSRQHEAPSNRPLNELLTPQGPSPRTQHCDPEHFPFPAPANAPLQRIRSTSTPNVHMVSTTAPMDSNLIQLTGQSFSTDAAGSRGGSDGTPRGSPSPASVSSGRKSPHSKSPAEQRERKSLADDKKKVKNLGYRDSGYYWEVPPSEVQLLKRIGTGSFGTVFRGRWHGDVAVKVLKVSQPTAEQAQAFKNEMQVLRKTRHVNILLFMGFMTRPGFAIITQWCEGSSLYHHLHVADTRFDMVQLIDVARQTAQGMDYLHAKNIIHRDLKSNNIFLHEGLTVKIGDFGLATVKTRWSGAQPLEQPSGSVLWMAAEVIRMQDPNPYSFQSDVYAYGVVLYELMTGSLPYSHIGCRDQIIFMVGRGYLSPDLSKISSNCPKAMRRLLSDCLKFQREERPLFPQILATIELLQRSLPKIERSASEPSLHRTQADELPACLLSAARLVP
# UniProt O14965: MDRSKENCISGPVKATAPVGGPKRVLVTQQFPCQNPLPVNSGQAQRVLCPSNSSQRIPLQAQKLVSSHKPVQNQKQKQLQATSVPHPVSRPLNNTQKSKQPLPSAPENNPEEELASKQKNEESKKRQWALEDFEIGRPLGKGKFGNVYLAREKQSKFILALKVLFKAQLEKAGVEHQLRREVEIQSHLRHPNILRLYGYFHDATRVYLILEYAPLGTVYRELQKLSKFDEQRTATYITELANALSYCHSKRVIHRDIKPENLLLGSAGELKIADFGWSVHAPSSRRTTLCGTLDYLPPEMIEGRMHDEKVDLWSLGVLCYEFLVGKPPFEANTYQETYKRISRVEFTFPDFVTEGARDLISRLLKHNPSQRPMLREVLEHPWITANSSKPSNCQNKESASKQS
# UniProt Q96GD4, whole entry: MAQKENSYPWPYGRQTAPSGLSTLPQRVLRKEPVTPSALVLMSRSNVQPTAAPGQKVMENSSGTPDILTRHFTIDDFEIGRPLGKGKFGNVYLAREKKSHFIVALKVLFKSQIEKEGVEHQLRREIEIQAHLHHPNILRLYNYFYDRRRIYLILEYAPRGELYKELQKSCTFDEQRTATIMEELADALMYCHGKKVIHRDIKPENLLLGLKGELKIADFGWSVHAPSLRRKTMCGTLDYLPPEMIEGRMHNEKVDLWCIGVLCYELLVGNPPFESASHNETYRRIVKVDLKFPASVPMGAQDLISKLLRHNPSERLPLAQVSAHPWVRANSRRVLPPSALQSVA
# UniProt Q9UQB9: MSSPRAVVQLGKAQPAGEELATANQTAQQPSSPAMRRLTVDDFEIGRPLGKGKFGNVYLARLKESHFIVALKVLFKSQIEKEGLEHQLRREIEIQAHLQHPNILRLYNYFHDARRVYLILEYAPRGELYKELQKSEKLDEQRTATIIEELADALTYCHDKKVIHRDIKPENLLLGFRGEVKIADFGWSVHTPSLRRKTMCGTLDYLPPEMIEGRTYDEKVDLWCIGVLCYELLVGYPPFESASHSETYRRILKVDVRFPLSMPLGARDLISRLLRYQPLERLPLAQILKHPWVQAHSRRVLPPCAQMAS
# UniProt P51813: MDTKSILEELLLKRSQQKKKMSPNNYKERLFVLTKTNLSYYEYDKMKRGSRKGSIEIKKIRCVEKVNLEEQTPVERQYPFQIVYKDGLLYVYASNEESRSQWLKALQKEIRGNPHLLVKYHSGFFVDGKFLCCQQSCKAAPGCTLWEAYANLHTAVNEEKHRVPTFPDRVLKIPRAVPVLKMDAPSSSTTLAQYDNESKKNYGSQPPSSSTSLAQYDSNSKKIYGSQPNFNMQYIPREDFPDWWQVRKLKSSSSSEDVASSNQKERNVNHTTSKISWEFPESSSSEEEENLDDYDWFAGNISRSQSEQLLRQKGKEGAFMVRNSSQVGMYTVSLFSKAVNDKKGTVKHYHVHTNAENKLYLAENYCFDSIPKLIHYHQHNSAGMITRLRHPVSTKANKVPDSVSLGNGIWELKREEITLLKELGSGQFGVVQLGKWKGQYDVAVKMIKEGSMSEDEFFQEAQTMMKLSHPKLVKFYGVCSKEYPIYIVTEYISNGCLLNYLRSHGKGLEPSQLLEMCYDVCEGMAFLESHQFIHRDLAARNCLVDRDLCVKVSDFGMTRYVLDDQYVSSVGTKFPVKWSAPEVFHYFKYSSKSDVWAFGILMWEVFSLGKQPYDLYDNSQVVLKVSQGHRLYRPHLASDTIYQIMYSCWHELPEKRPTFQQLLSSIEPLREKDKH
# UniProt P15056, whole entry, looked up: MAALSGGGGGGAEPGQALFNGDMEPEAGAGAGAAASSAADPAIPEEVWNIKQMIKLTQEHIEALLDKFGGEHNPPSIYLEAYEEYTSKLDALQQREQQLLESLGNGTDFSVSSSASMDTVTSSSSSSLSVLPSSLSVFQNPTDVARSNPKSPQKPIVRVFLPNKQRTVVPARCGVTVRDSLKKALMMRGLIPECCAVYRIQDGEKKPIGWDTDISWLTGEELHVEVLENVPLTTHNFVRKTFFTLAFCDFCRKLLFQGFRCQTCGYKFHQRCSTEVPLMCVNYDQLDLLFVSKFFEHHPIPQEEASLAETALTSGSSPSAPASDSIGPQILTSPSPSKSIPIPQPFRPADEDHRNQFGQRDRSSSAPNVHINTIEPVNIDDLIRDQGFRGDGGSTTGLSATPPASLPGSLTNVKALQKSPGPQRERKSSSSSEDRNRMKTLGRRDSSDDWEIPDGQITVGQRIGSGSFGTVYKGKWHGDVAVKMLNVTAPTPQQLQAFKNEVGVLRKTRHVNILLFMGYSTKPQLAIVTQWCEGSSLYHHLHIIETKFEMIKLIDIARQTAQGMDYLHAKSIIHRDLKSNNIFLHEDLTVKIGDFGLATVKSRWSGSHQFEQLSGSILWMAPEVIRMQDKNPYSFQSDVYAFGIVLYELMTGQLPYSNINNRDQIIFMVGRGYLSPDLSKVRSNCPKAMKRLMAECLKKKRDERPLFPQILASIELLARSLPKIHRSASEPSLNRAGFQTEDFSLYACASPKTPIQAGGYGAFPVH
# UniProt Q06187: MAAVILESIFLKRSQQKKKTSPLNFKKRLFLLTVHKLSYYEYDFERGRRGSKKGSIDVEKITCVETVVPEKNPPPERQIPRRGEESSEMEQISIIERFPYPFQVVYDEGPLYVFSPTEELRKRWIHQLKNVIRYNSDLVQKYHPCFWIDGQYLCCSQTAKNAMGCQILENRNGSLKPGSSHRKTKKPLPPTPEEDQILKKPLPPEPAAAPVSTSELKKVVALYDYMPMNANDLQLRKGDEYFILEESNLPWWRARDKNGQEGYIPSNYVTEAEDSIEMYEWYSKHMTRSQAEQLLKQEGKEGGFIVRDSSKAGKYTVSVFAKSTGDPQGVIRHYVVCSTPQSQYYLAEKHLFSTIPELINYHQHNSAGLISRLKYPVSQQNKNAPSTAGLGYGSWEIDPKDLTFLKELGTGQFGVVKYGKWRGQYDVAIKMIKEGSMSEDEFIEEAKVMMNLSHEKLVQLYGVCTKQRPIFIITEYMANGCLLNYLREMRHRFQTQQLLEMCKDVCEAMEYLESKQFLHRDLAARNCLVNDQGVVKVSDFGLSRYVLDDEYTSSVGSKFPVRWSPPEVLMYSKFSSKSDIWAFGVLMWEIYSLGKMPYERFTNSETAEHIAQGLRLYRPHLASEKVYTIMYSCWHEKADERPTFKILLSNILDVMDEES
# UniProt Q13555: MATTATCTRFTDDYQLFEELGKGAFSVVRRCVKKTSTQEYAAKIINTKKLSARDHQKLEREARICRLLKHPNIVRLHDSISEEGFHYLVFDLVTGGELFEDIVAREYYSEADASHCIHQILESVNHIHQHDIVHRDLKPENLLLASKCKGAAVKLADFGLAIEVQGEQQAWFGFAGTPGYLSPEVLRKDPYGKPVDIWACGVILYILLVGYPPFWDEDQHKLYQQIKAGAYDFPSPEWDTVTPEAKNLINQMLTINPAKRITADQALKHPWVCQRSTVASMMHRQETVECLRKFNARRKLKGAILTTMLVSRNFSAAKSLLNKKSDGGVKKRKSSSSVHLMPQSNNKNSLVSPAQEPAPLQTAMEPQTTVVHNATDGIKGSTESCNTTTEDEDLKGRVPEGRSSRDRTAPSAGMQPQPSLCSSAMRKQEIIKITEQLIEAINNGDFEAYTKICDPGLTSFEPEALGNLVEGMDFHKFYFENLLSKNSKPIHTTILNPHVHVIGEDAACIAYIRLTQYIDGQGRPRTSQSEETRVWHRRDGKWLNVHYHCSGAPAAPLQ
# UniProt Q15131: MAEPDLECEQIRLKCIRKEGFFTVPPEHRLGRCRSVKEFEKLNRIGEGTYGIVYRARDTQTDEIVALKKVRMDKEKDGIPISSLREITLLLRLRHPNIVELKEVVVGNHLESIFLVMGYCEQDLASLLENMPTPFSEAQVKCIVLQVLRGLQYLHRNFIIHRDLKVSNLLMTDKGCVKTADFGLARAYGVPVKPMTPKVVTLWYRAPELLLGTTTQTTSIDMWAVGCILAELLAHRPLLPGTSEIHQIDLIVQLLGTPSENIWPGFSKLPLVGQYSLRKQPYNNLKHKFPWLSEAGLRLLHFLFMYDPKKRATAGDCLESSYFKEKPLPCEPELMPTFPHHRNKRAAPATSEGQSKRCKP
# UniProt Q00526: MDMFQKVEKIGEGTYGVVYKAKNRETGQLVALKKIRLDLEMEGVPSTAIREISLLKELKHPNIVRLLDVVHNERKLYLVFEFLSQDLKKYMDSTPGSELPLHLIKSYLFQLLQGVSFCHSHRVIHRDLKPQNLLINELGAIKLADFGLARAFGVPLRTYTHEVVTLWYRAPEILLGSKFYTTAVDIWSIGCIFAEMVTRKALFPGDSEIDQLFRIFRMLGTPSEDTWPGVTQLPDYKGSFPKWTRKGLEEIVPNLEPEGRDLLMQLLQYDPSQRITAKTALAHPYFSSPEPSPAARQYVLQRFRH
# UniProt Q00535, whole entry, looked up: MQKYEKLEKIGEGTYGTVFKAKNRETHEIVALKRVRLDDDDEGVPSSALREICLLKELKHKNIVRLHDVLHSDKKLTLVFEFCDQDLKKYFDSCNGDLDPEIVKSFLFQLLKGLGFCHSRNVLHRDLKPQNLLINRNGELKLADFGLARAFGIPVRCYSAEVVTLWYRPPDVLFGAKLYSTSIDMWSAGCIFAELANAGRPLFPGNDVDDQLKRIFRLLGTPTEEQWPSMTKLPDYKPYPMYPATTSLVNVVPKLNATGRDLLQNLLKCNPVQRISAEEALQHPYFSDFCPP
# UniProt Q00534, whole entry: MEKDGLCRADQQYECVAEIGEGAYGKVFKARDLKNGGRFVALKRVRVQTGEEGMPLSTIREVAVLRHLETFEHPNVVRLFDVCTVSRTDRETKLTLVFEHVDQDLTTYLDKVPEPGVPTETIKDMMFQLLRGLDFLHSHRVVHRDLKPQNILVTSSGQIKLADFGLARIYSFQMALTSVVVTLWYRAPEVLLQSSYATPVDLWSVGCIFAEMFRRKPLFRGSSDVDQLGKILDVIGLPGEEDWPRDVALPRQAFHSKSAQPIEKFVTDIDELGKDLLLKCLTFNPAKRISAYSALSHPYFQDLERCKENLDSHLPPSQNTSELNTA
# UniProt O96017, whole entry: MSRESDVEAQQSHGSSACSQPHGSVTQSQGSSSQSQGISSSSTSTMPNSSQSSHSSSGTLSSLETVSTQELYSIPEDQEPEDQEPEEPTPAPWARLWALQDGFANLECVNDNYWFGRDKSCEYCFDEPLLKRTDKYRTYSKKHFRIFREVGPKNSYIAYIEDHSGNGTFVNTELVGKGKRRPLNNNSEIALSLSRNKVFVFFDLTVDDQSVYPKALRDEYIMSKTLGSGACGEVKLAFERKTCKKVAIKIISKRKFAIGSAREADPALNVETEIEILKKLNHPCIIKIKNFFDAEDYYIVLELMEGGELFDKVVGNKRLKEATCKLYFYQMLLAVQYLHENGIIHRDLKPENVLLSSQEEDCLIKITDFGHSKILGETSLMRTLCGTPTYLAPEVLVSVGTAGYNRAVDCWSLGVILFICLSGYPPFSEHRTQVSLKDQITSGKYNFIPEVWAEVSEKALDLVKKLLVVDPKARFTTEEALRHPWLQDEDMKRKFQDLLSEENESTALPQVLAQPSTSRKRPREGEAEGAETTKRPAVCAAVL
# UniProt P41240: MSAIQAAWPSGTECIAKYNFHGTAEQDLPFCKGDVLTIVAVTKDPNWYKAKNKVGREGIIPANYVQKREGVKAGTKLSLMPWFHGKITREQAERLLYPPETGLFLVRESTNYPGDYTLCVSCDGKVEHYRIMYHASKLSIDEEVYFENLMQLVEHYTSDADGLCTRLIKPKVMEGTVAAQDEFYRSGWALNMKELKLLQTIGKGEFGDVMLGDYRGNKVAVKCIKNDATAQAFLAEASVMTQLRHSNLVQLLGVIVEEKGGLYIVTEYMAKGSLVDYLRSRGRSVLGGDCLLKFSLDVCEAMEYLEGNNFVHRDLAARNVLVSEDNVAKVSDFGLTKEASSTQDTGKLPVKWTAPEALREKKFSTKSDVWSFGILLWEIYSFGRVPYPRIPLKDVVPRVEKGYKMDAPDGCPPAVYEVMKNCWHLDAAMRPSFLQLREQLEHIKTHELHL
# Structures can show the parent of a compound that is named as a salt. This is one part of the list. The calls rarely recur for the same compound in another form.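 In K562 cells expressing nanoluciferase-fused kinases, luminescence was recorded at 4 h intervals between 2 and 18 h, normalized as percent of control with DMSO at 100% and a positive control at 0%. A significant (2 sigma) signal drop marks a time point as decreased. The authors' rule for a hit is not shown and takes in more than the number of time points.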
# Legend:
# Assay in all cases: number of time points (of 5) at which kinase-Nluc abundance scored as decreased, DMSO-normalised (count); higher = more persistent destabilization
# Settings in all cases: K562; 2-18 h
# ALK = ALK (UniProt Q9UM73)
# ARAF = ARAF (UniProt P10398)
# AURKA = AURKA (UniProt O14965)
# AURKB = AURKB (UniProt Q96GD4)
# AURKC = AURKC (UniProt Q9UQB9)
# BLK = BLK (UniProt P51451)
# BMX = BMX (UniProt P51813)
# BRAF = BRAF (UniProt P15056)
# BRAF_V600E = test system: BRAF_V600E
# BTK = BTK (UniProt Q06187)
# CAMK2A = CAMK2A (UniProt Q9UQM7)
# CAMK2G = CAMK2G (UniProt Q13555)
# CDK10 = CDK10 (UniProt Q15131)
# CDK2 = CDK2 (UniProt P24941)
# CDK3 = CDK3 (UniProt Q00526)
# CDK5 = CDK5 (UniProt Q00535)
# CDK6 = CDK6 (UniProt Q00534)
# CHEK2 = CHEK2 (UniProt O96017)
# CSF1R = CSF1R (UniProt P07333)
# CSK = CSK (UniProt P41240)
Compound,number of time points (ALK),number of time points (ARAF),number of time points (AURKA),number of time points (AURKB),number of time points (AURKC),number of time points (BLK),number of time points (BMX),number of time points (BRAF),number of time points (BRAF_V600E),number of time points (BTK),number of time points (CAMK2A),number of time points (CAMK2G),number of time points (CDK10),number of time points (CDK2),number of time points (CDK3),number of time points (CDK5),number of time points (CDK6),number of time points (CHEK2),number of time points (CSF1R),number of time points (CSK)
CC(=O)c1c(O)c(C)c(O)c(Cc2c(O)c3c(c(C(=O)/C=C/c4ccccc4)c2O)OC(C)(C)C=C3)c1O [Rottlerin] (2 µM),0,0,0,0,0,0,2,0,0,0,0,0,0,0,0,0,0,0,0,0
O=C1C=CC[C@@H]2[C@H]3CCCN4CCC[C@@H](CN12)[C@@H]34 [Sophocarpine (monohydrate)] (2.5 µM),0,0,0,0,0,0,0,0,0,0,0,0,0,0,0,0,0,0,0,0
O=C1c2ccccc2C(=O)c2c1cccc2-c1cnn(C2CCNCC2)c1 [PDK4-IN-1 (hydrochloride)] (10 µM),0,0,0,0,0,0,0,0,1,0,0,0,0,0,0,0,0,0,0,0
Nc1ncnc2c1ncn2[C@@H]1O[C@@H]2COP(O)(=S)O[C@H]2[C@H]1O (stereo not given in full) [Sp-cAMPS (sodium salt)] (10 µM),0,0,0,0,0,0,1,0,0,0,0,0,0,0,0,0,0,0,0,0
O=c1[nH]c2ccccc2n1C1CCN(CCCC(c2ccc(F)cc2)c2ccc(F)cc2)CC1 [Pimozide] (2.5 µM),0,0,0,0,0,0,0,0,0,0,0,0,0,0,0,0,0,0,0,0
CC(C)=CC[C@@H](OC(=O)CC(C)(C)O)C1=CC(=O)c2c(O)ccc(O)c2C1=O [β-Hydroxyisovalerylshikonin] (2.5 µM),0,0,0,0,0,0,0,0,0,0,0,0,0,0,0,0,0,0,0,0
C/C=C(/C)C(=O)O[C@H]1[C@@H]2[C@H](C)C(=O)O[C@@H]2C[C@@H](C)[C@@H]2C=CC(=O)[C@]21C [Brevilin A] (2.5 µM),0,0,0,0,0,0,0,0,0,0,0,0,0,0,0,0,0,1,0,0
C[C@H]1CC[C@]2(NC1)O[C@H]1C[C@H]3[C@@H]4CC[C@H]5C[C@@H](O)CC[C@]5(C)[C@H]4CC[C@]3(C)[C@H]1[C@@H]2C [Tomatidine] (2 µM),0,0,0,0,0,0,0,0,0,0,0,0,0,0,0,0,0,0,0,0
Cc1ccccc1-n1c(Cn2ncc3c(N)ncnc32)nc2cccc(C)c2c1=O (10 µM),0,0,0,0,0,0,0,0,0,0,0,0,0,0,0,0,0,0,0,0
O=[N+]([O-])/C=C/c1ccc2c(c1)OCO2 (2.5 µM),0,0,0,0,0,0,0,0,0,0,0,0,0,0,0,0,0,0,0,0
C=CC(=O)N[C@H]1C=C(C)c2c(-c3cnc4ccccc4c3)c3c(N)ncnc3n2C1 (10 µM),0,0,0,0,0,0,0,0,0,0,0,0,0,0,0,0,0,0,0,0
NCCc1cn(S(=O)(=O)c2c(Cl)nc3sccn23)c2ccccc12 (10 µM),0,0,0,0,0,0,0,0,0,0,0,0,0,0,0,0,0,0,0,0
CC1C(=O)OC2C(O)C34C5OC(=O)C3(OC3OC(=O)C(O)C34C(C(C)(C)C)C5O)C12O (stereo not given) [Ginkgolide C] (10 µM),0,0,0,0,0,0,0,0,0,0,0,0,0,0,0,0,0,0,0,0
Cc1[nH]ncc1-c1cc2nc([C@H]3CC4CCN3CC4)[nH]c(=O)c2s1 [(R)-Simurosertib] (10 µM),0,0,1,0,0,0,0,0,0,0,0,0,0,0,0,0,0,0,0,0
C[C@H]1CC[C@]2(NC1)O[C@H]1C[C@H]3[C@@H]4CC[C@H]5C[C@@H](O)CC[C@]5(C)[C@H]4CC[C@]3(C)[C@H]1[C@@H]2C [Tomatidine (hydrochloride)] (10 µM),0,0,0,0,0,0,0,0,0,0,0,0,0,0,0,0,0,0,0,0
C=CC(=O)Nc1ccc2[nH]c(=O)n(C3CCN(Cc4ccc(-c5nc6cc[nH]c(=O)c6cc5-c5ccccc5)cc4)CC3)c2c1 [Borussertib] (10 µM),0,0,0,0,0,3,0,0,0,0,0,0,0,0,0,0,0,0,0,0
CC(C)(C)c1cc(C=C(C#N)C#N)cc(Br)c1O (2.5 µM),0,0,0,0,0,0,0,0,0,0,0,0,0,0,0,0,0,0,0,0
CCOC(=O)c1c(/C(C#N)=C\N)c2ccc(Cl)c(Cl)c2n1C (10 µM),0,0,0,0,0,0,0,0,0,0,0,0,0,0,0,0,0,0,0,0
CC(=O)O[C@H]1[C@H]2[C@@H](OC(=O)Cc3ccccc3)[C@@H](C)C[C@]2(OC(C)=O)C(=O)/C(C)=C/[C@@H]2[C@H](CC[C@@]13CO3)C2(C)C [Euphorbiasteroid] (10 µM),0,0,0,0,0,0,0,0,0,0,0,0,0,0,0,0,0,0,0,0
O=C(O)c1sc2cc(Cl)ccc2c1Cl (10 µM),0,0,0,0,0,0,0,0,0,0,0,0,0,0,0,0,3,0,0,0
CN(C)C(=O)c1ccc(Cn2c(C(=O)O)cc3c(Br)cc(Sc4ccc(Cl)c(Cl)c4)cc32)cc1 [Rheb inhibitor NR1] (10 µM),0,0,0,0,0,0,0,0,0,0,0,0,0,0,0,0,0,0,0,0
O=c1ccc2cc(O[C@@H]3O[C@H](CO)[C@@H](O)[C@H](O)[C@H]3O)c(O)cc2o1 [Esculin] (10 µM),0,0,0,0,0,0,0,0,0,0,0,0,0,0,0,0,0,0,0,0

# Some entries already given with just number of time points (ARAF).
Compound | number of time points (ARAF)
C[C@H]1CC[C@]2(NC1)O[C@H]1C[C@H]3[C@@H]4CC[C@H]5C[C@@H](O)CC[C@]5(C)[C@H]4CC[C@]3(C)[C@H]1[C@@H]2C [Tomatidine (hydrochloride)] (10 µM) | 0
C=CC(=O)Nc1ccc2[nH]c(=O)n(C3CCN(Cc4ccc(-c5nc6cc[nH]c(=O)c6cc5-c5ccccc5)cc4)CC3)c2c1 [Borussertib] (10 µM) | 0
